The values that follow come from PMC9051092.

Chains of the proteins cited; added tags and fusions are not shown.
UniProt Q86WV6: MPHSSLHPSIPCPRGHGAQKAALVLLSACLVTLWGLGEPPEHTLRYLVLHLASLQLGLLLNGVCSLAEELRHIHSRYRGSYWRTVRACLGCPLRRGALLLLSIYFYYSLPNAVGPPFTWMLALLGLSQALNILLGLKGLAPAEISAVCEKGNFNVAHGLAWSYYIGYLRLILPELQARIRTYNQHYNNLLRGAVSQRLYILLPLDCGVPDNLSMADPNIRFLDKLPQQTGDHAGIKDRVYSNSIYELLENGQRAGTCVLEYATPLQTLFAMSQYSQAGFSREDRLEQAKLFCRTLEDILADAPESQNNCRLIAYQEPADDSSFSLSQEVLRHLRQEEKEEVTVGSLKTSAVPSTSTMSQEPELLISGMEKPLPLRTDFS

The target in assay [1] is mCitrine (mCit)-tagged human STING (human) (UniProt Q86WV6). Description: affinity purification with mass spectrometry; mCit-STING transiently overexpressed in HEK293T (48 hrs), lysis in 1% NP-40 buffer (20 mM Tris-HCl pH 7.4, 150 mM NaCl), IP with anti-GFP antibody cross-linked to Protein A Dynabeads, 2 hrs at 4 °C, four washes; label-free quantification against empty vector control, n = 3 independent IPs.

Assay [2] has as its target mCitrine (mCit)-tagged human STING (human), Q86WV6. The assay is described as above. The following applies: remark: other sources report otherwise.

Results are given in words; binding and its absence hold for the method and conditions named. Binding seen in cells or lysates may run through a third protein. A yes stands for co-enrichment or nearness to the bait. Other partners may have been found.

B1: transmembrane protein 214 (TMEM214) (protein, UniProt Q6NUQ4 1-689)
chain: MATKTAGVGRWEVVKKGRRPGVGAGAGGRGGGRNRRALGEANGVWKYDLTPAIQTTSTLYERGFENIMKRQNKEQVPPPAVEPKKPGNKKQPKKVATPPNQNQKQGRFRSLEEALKALDVADLQKELDKSQSVFSGNPSIWLKDLASYLNYKLQAPLSEPTLSQHTHDYPYSLVSRELRGIIRGLLAKAAGSLELFFDHCLFTMLQELDKTPGESLHGYRICIQAILQDKPKIATANLGKFLELLRSHQSRPAKCLTIMWALGQAGFANLTEGLKVWLGIMLPVLGIKSLSPFAITYLDRLLLMHPNLTKGFGMIGPKDFFPLLDFAYMPNNSLTPSLQEQLCQLYPRLKVLAFGAKPDSTLHTYFPSFLSRATPSCPPEMKKELLSSLTECLTVDPLSASVWRQLYPKHLSQSSLLLEHLLSSWEQIPKKVQKSLQETIQSLKLTNQELLRKGSSNNQDVVTCDMACKGLLQQVQGPRLPWTRLLLLLLVFAVGFLCHDLRSHSSFQASLTGRLLRSSGFLPASQQACAKLYSYSLQGYSWLGETLPLWGSHLLTVVRPSLQLAWAHTNATVSFLSAHCASHLAWFGDSLTSLSQRLQIQLPDSVNQLLRYLRELPLLFHQNVLLPLWHLLLEALAWAQEHCHEACRGEVTWDCMKTQLSEAVHWTWLCLQDITVAFLDWALALISQQ
In the case of B1, the binding result in assay [1] is “binds”.

B2: TANK-binding-kinase 1 (TBK1), Q9UHD2 1-729 (protein)
chain: MQSTSNHLWLLSDILGQGATANVFRGRHKKTGDLFAIKVFNNISFLRPVDVQMREFEVLKKLNHKNIVKLFAIEEETTTRHKVLIMEFCPCGSLYTVLEEPSNAYGLPESEFLIVLRDVVGGMNHLRENGIVHRDIKPGNIMRVIGEDGQSVYKLTDFGAARELEDDEQFVSLYGTEEYLHPDMYERAVLRKDHQKKYGATVDLWSIGVTFYHAATGSLPFRPFEGPRRNKEVMYKIITGKPSGAISGVQKAENGPIDWSGDMPVSCSLSRGLQVLLTPVLANILEADQEKCWGFDQFFAETSDILHRMVIHVFSLQQMTAHKIYIHSYNTATIFHELVYKQTKIISSNQELIYEGRRLVLEPGRLAQHFPKTTEENPIFVVSREPLNTIGLIYEKISLPKVHPRYDLDGDASMAKAITGVVCYACRIASTLLLYQELMRKGIRWLIELIKDDYNETVHKKTEVVITLDFCIRNIEKTVKVYEKLMKINLEAAELGEISDIHTKLLRLSSSQGTIETSLQDIDSRLSPGGSLADAWAHQEGTHPKDRNVEKLQVLLNCMTEIYYQFKKDKAERRLAYNEEQIHKFDKQKLYYHATKAMTHFTDECVKKYEAFLNKSEEWIRKMLHLRKQLLSLTNQCFDIEEEVSKYQEYTNELQETLPQKMFTASSGIKHTMTPIYPSSNTLVEMTLGMKKLKEEMEGVVKELAENNHILERFGSLTMDGGLRNVDCL
As to B2, the binding result in assay [2] is recorded as “binds”.
